The values that follow are results of earlier work, collected in patent US9434822B2, “Block copolymer, micelle preparation, and anticancer agent containing the same as active ingredient” (Nippon Kayaku Kabushiki Kaisha, priority 2004, dated 2016).

The conditions of the series: cited from earlier work.

Consider `CC(=O)O[C@H]1C(=O)[C@@]2(C)[C@H]([C@H](OC(=O)c3ccccc3)[C@]3(O)C[C@H](OC(=O)[C@H](O)[C@@H](NC(=O)c4ccccc4)c4ccccc4)C(C)=C1C3(C)C)[C@]1(OC(C)=O)CO[C@@H]1C[C@@H]2O` [Paclitaxel alone, paclitaxel], for which the water solubility is not above 1 µg/mL.
